Laboratory results from article PMC5313150.
Results are given in words; binding and its absence hold for the method and conditions named. In cells and extracts the contact can be indirect. Some entries that bind do so weakly or less than the wild type. Sequences can lack the tags named with a protein.

T1: GFP-Dark (Drosophila) (UniProt Q7KLI1)
T1 sequence: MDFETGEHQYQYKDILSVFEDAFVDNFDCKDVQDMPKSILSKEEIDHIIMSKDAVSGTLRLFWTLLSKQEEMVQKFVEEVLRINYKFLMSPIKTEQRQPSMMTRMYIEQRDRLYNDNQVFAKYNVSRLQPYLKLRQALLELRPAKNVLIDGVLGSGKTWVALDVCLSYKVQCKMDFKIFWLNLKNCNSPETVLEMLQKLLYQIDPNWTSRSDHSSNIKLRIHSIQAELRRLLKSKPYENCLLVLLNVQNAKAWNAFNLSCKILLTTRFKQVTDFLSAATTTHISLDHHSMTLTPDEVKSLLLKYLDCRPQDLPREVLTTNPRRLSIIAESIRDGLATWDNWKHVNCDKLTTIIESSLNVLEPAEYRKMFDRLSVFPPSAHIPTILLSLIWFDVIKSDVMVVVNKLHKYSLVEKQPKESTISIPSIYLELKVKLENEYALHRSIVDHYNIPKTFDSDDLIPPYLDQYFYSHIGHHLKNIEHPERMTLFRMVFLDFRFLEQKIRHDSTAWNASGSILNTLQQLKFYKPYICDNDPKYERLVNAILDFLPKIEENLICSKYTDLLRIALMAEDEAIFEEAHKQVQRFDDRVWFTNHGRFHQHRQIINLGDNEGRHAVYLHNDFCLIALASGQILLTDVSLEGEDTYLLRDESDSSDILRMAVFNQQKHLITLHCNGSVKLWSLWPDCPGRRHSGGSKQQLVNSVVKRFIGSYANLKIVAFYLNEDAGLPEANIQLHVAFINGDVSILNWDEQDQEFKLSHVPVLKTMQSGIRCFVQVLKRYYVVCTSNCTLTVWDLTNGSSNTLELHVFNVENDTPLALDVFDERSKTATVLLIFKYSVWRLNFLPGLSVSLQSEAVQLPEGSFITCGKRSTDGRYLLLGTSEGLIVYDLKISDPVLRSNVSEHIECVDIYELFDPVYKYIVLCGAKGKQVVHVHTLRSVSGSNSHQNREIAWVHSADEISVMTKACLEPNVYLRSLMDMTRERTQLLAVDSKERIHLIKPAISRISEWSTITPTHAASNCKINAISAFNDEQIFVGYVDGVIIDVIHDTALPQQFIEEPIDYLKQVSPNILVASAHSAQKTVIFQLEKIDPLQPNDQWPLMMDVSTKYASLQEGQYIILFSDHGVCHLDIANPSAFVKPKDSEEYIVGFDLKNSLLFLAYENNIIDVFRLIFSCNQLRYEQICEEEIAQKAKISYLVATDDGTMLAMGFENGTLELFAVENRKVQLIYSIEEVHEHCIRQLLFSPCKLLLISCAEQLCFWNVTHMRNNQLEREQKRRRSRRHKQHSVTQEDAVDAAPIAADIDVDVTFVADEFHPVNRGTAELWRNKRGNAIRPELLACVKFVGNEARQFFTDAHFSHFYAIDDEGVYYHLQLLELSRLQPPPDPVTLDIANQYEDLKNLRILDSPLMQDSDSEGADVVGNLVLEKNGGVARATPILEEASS


Biological target: T1, GFP-Dark (Drosophila)
Assay: co-IP; GFP-Dark precipitated with GFP-Trap magnetic beads from 3rd instar larval extracts (da>GFP-Dark+Flag-Dronc, Gal80^ts, 24 h at 29°C); NP40 buffer (20 mM TrisHCl pH 8.0, 137 mM NaCl, 1% NP40, 2 mM EDTA), 4°C overnight; blot with anti-Flag

binding | Binder
binds | Flag-Dronc^wt (enzyme, UniProt Q9XYF4 1-450) MQPPELEIGMPKRHREHIRKNLNILVEWTNYERLAMECVQQGILTVQMLRNTQDLNGKPFNMDEKDVRVEQHRRLLLKITQRGPTAYNLLINALRNINCLDAAVLLESVDESDSRPPFISLNERRTSRKSADIVDTPSPEASEGPCVSKLRNEPLGALTPYVGVVDGPEVKKSKKIHGGDSAILGTYKMQSRFNRGVLLMVNIMDYPDQNRRRIGAEKDSKSLIHLFQELNFTIFPYGNVNQDQFFKLLTMVTSSSYVQNTECFVMVLMTHGNSVEGKEKVEFCDGSVVDMQKIKDHFQTAKCPYLVNKPKVLMFPFCRGDEYDLGHPKNQGNLMEPVYTAQEEKWPDTQTEGIPSPSTNVPSLADTLVCYANTPGYVTHRDLDTGSWYIQKFCQVMADHAHDTDLEDILKKTSEAVGNKRTKKGSMQTGAYDNLGFNKKLYFNPGFFNE
binds | Flag-Dronc^K78R (enzyme, UniProt Q9XYF4 1-450) MQPPELEIGMPKRHREHIRKNLNILVEWTNYERLAMECVQQGILTVQMLRNTQDLNGKPFNMDEKDVRVEQHRRLLLRITQRGPTAYNLLINALRNINCLDAAVLLESVDESDSRPPFISLNERRTSRKSADIVDTPSPEASEGPCVSKLRNEPLGALTPYVGVVDGPEVKKSKKIHGGDSAILGTYKMQSRFNRGVLLMVNIMDYPDQNRRRIGAEKDSKSLIHLFQELNFTIFPYGNVNQDQFFKLLTMVTSSSYVQNTECFVMVLMTHGNSVEGKEKVEFCDGSVVDMQKIKDHFQTAKCPYLVNKPKVLMFPFCRGDEYDLGHPKNQGNLMEPVYTAQEEKWPDTQTEGIPSPSTNVPSLADTLVCYANTPGYVTHRDLDTGSWYIQKFCQVMADHAHDTDLEDILKKTSEAVGNKRTKKGSMQTGAYDNLGFNKKLYFNPGFFNE
